PMC6224265

Amino acid sequences for entries named in this document (tags omitted). Residues count along the entry.
UniProt P02545, residues 1-646: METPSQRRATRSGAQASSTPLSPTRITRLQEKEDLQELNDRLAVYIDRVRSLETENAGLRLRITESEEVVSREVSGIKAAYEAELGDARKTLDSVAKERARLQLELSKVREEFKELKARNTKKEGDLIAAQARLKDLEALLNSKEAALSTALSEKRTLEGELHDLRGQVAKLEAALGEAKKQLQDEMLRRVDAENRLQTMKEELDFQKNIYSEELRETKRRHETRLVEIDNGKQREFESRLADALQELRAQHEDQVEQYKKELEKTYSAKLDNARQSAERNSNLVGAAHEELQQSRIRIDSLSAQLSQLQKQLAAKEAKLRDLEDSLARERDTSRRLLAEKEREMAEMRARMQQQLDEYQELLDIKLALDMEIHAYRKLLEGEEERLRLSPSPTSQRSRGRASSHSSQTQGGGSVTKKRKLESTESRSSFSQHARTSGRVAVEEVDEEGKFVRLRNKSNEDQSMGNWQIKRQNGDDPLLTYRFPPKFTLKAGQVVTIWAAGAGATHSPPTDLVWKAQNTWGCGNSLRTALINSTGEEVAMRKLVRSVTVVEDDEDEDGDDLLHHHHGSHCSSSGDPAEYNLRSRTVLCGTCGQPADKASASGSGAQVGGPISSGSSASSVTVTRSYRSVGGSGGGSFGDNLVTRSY

Biological target: T1, NADPH oxidase isoform 4 (Nox4) (human (endogenous in AFSC)) (UniProt Q9NPH5)
T1 sequence: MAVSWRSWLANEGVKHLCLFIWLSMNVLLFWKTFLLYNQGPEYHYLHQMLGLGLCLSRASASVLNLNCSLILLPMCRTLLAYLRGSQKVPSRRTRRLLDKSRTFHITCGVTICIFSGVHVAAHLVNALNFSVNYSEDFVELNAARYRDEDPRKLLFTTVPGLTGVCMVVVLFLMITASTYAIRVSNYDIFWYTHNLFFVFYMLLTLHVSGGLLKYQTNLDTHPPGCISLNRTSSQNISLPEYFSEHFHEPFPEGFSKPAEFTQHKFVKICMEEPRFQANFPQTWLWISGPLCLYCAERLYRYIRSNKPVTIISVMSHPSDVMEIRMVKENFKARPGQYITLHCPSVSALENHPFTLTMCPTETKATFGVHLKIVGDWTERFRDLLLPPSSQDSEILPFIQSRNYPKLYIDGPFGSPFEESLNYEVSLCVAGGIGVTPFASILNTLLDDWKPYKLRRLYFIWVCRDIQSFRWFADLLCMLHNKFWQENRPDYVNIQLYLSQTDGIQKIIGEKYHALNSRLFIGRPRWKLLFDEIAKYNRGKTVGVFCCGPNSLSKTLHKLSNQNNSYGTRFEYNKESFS
Assay: affinity purification with mass spectrometry; Nox4 immunoprecipitated from lysates of isolated AFSC nuclei; SDS-PAGE, Coomassie bands, in-gel trypsin digestion, LC/MS/MS, Mascot; called preliminary

lamin A proteins (from UniProt P02545 1-646)
binding: binds

No constants are given. Whether binding was seen depends on the method and setting. In cells and extracts the contact can be indirect. A yes stands for co-enrichment or nearness to the bait. Other partners may have been found.
